{"source": "patent EP1694242B1", "about": "“PROCESS FOR MAKING PHARMACEUTICAL 7-(2-TRIMETHYLSILYLETHYL) CAMPTOTHECIN FORMULATIONS” (BIONUMERIK PHARMACEUTICALS, INC., priority 2003, dated 2005)", "origin": "cited, not measured here", "settings": "closed E-ring lactone form; background statement"}
{"smiles": "CC[C@@]1(O)C(=O)OCc2c1cc1n(c2=O)Cc2cc3ccccc3nc2-1", "note": "[CPT, Camptothecin]", "values": [{"measurement": "water soluble (amount of drug dissolving in water)", "value": "approximately 0.1 microgram of drug dissolving in 1 mL of water"}]}
